Results are given in words; binding and its absence hold for the method and conditions named. For part of these data: Binding seen in cells or lysates may run through a third protein. Some results given as binding are weak or reduced against the parent protein; the word gives no strength.
How the values were obtained:
[1] = target: ubiquitin specific peptidase 5 (USP5), endogenous (human (endogenous in H1299 and H460)) (UniProt P45974); test: co-IP; endogenous proteins in lysates of H1299 and H460 cells; anti-PD-L1 or anti-USP5 antibody with protein A/G sepharose beads overnight at 4 °C in EBC buffer (50 mM Tris-HCl pH 7.6-8.0, 0.5% NP-40, 1 mM EDTA, 1 mM β-mercaptoethanol); western blot
recombinant GST-USP5 = recombinant GST-USP5 (UniProt P45974); test: pull-down; in vitro GST pull-down with purified recombinant GST-USP5 and His-PD-L1; both purified
[2] = target: PD-L1, endogenous (human (endogenous in H1299 and H460)) (UniProt Q9NZQ7); test: co-IP; endogenous proteins in lysates of H1299 and H460 cells; anti-PD-L1 or anti-USP5 antibody with protein A/G sepharose beads overnight at 4 °C in EBC buffer (50 mM Tris-HCl pH 7.6-8.0, 0.5% NP-40, 1 mM EDTA, 1 mM β-mercaptoethanol); western blot

Amino acid sequences for entries named in this document (tags omitted). A change or cut given only in a name is not applied to a line headed by its entry. Residues count along the entry.
UniProt P45974: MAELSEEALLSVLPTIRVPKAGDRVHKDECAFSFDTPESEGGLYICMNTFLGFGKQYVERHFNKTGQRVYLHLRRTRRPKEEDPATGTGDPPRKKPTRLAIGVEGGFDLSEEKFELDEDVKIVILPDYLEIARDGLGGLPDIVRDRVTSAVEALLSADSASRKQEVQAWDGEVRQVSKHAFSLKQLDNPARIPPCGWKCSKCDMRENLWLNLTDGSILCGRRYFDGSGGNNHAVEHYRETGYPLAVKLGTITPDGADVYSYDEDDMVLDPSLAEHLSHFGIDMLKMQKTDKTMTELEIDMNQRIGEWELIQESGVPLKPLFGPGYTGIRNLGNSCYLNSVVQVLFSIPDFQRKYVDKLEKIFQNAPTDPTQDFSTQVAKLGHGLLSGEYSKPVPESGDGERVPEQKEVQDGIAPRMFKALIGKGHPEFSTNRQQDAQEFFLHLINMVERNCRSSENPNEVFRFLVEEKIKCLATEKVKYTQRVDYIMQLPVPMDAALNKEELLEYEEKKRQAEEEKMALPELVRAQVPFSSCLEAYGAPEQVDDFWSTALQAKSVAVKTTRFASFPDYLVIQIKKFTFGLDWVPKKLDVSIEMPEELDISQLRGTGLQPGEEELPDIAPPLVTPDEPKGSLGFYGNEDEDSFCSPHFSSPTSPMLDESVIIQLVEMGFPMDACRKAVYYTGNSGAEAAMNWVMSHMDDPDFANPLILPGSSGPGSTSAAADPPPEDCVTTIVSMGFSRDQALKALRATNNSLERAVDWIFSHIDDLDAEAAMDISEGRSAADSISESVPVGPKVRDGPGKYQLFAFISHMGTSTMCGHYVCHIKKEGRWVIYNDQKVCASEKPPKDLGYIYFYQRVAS
UniProt Q9NZQ7: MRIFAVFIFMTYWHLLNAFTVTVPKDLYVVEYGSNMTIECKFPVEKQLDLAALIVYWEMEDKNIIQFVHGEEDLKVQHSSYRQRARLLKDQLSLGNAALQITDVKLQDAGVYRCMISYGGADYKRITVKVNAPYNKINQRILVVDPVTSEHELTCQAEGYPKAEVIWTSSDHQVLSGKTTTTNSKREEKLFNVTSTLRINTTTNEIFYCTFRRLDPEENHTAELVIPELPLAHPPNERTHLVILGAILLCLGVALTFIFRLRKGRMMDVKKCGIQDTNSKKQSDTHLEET
PD-L1, endogenous (human (endogenous in H1299 and H460)): residues 19-290 of Q9NZQ7

**Q.** How did the binding [1] turn out when “PD-L1, endogenous (from UniProt Q9NZQ7 19-290)” was run?
**A.** binds

**Q.** With “recombinant His6-PD-L1 (from UniProt Q9NZQ7 19-238)” as the substance, how does the binding (recombinant GST-USP5) read?
**A.** binds

**Q.** With “ubiquitin specific peptidase 5 (USP5), endogenous (from UniProt P45974 1-858) (enzyme)” as the substance, how does the binding [2] read?
**A.** binds

From publication PMC8571306
